Assay results from the supplement of paper PMC10849652.
The other results are listed elsewhere or left out.

Sequences of proteins named here, by UniProt entry; tags and fusion partners are left off. A change or cut given only in a name is not applied to a line headed by its entry.
UniProt Q9C0B1, whole entry, looked up: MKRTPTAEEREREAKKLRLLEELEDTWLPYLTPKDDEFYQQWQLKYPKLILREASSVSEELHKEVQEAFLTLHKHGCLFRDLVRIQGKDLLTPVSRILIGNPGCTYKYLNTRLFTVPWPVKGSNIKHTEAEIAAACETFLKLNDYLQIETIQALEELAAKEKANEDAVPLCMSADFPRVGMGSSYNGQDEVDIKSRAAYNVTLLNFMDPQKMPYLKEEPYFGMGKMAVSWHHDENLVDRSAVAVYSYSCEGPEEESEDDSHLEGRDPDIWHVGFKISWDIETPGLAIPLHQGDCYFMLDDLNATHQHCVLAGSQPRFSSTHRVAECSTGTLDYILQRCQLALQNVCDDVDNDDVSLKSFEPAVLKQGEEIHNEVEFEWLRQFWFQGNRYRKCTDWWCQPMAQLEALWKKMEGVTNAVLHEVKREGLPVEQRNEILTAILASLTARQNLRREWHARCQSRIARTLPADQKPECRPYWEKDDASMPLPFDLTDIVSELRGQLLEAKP
UniProt Q8IVH2: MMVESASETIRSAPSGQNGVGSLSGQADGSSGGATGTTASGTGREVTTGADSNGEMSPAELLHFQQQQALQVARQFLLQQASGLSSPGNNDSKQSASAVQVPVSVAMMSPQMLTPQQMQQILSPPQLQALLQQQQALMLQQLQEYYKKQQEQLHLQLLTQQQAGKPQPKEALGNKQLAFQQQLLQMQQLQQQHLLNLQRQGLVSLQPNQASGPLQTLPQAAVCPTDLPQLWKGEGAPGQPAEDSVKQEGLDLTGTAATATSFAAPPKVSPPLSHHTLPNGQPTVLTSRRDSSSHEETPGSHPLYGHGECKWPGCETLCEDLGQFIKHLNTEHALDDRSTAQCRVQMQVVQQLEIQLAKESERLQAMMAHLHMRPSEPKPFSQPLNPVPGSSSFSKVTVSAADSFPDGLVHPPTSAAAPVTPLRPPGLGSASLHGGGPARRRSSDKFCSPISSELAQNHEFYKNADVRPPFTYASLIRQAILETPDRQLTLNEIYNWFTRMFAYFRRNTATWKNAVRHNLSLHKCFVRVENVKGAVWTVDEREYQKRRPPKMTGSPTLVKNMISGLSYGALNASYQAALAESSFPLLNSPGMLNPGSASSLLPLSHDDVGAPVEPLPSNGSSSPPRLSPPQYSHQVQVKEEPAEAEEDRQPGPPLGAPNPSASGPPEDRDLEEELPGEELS
UniProt Q8IWJ2: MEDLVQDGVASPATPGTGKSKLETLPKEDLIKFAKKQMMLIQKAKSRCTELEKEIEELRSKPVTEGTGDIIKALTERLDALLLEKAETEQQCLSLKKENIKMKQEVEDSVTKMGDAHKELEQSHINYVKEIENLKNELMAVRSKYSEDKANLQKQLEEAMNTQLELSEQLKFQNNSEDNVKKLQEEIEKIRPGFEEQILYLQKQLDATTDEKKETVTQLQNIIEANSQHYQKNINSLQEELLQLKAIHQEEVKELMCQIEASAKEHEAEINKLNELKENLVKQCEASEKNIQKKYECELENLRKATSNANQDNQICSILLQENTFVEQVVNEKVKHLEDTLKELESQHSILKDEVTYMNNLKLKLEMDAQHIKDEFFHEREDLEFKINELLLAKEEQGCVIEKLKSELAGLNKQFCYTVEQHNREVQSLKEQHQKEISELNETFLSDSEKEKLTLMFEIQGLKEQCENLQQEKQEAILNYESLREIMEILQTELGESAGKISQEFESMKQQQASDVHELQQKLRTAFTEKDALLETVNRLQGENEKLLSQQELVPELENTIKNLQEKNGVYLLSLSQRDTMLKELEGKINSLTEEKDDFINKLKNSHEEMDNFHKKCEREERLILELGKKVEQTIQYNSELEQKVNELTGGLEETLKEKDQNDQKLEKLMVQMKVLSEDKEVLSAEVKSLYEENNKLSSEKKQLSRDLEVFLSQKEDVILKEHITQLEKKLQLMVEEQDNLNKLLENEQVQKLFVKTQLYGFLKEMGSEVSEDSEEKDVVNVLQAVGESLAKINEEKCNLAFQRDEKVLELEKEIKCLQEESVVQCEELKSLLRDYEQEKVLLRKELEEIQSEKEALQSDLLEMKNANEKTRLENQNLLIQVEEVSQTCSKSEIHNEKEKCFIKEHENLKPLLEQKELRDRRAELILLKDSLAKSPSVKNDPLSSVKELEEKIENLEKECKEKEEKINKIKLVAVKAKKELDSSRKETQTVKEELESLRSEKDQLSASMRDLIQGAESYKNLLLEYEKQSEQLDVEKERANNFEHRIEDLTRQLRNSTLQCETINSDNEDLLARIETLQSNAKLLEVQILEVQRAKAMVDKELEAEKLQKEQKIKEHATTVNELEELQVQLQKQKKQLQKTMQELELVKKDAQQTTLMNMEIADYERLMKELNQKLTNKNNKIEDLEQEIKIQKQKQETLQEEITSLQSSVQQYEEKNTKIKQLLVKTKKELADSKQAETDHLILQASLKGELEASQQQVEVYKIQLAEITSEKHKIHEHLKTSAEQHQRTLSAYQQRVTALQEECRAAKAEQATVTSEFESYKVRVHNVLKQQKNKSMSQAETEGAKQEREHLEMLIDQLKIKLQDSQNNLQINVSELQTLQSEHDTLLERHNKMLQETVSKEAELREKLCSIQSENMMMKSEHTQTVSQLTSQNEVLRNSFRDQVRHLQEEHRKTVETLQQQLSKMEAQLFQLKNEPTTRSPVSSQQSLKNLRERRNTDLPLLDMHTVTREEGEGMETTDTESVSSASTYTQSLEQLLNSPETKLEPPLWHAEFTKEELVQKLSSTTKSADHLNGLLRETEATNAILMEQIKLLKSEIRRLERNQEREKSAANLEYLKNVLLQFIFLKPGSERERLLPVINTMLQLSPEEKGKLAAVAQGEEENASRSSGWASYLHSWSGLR
UniProt Q01415: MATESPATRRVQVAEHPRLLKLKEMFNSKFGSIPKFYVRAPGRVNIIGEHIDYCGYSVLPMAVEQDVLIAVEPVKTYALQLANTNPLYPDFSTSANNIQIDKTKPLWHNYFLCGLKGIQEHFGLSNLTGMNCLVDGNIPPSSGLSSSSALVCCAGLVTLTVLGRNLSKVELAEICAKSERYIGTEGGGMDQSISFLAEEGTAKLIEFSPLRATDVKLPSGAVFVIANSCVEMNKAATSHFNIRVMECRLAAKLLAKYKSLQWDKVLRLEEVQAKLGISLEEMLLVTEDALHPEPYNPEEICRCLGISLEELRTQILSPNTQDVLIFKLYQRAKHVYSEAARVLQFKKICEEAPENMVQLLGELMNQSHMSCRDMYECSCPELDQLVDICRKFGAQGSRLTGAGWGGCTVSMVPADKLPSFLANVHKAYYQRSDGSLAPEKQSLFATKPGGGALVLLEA
UniProt P51116, whole entry, looked up: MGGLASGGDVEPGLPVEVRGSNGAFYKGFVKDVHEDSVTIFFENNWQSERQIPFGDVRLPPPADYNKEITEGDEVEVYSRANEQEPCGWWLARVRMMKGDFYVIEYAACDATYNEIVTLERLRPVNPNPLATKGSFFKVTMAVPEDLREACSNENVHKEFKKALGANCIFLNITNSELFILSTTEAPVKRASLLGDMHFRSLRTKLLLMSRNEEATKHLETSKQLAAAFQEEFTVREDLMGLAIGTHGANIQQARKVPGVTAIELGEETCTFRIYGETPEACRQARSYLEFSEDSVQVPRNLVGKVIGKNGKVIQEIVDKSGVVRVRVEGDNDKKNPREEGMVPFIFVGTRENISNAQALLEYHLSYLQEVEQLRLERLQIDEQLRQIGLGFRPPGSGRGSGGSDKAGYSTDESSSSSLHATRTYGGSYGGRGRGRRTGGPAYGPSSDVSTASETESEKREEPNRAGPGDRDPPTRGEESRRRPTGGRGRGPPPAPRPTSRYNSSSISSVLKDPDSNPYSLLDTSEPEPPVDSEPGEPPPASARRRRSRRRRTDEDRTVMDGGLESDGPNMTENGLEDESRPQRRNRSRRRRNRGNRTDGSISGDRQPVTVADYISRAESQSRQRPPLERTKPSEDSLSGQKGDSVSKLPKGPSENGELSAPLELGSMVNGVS
UniProt Q6ZNW5: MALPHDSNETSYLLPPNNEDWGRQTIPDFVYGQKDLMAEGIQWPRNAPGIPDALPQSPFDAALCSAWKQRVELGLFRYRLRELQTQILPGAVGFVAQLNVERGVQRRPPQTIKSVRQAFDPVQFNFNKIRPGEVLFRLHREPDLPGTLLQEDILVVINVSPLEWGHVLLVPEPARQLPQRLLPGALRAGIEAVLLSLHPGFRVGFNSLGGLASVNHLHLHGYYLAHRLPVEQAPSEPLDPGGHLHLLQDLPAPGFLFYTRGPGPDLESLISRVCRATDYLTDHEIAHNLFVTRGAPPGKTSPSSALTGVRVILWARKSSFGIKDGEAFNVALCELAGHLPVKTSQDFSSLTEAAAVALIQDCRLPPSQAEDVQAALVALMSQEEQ
UniProt P60520, whole entry, looked up: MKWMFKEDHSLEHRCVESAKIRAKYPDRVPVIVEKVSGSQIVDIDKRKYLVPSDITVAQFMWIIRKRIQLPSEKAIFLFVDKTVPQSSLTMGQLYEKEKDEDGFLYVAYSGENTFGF
UniProt Q9UJY5: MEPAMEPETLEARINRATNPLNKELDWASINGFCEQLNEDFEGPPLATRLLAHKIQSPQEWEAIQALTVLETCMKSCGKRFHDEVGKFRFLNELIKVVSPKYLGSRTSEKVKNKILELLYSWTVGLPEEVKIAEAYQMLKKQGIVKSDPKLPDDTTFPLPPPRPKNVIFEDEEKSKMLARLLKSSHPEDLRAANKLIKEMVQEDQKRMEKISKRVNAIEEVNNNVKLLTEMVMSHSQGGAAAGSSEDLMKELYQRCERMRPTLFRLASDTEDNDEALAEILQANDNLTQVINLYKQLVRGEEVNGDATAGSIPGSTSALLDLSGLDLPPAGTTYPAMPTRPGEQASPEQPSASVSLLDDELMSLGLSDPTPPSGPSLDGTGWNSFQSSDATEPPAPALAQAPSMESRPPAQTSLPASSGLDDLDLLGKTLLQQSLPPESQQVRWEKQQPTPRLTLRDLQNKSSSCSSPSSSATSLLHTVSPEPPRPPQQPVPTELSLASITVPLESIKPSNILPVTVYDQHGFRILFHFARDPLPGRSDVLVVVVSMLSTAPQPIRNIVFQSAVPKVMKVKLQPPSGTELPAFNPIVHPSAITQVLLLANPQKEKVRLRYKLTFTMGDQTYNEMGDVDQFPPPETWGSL
UniProt P41250: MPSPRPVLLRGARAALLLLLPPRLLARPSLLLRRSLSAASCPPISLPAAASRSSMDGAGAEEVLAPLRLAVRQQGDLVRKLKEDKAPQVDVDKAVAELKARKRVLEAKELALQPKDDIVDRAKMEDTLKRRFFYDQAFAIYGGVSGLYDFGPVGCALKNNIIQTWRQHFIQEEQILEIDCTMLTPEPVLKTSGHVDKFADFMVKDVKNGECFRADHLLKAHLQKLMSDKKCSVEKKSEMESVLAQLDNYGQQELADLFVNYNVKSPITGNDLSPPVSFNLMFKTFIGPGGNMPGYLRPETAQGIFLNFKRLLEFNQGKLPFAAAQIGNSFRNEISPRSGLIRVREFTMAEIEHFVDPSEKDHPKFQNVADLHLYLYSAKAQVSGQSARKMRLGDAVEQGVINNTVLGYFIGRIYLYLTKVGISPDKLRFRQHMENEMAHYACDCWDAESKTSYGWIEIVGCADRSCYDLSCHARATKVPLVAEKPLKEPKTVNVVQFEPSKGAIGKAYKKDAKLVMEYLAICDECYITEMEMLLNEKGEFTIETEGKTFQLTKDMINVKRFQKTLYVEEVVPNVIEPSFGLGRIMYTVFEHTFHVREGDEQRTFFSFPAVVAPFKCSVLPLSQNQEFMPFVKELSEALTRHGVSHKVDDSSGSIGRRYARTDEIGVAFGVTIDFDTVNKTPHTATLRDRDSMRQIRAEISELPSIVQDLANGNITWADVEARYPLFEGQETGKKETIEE
UniProt P07902: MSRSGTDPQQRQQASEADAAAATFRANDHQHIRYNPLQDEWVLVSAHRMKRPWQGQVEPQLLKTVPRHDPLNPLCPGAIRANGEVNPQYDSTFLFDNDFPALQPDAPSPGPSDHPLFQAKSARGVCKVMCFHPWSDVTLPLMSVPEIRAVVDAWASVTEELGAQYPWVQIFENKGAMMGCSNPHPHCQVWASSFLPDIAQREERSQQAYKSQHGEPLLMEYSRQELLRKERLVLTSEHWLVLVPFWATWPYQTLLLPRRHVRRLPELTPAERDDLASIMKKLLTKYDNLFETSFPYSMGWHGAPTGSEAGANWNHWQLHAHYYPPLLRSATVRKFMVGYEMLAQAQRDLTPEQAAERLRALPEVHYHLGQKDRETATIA
UniProt Q9NZC3: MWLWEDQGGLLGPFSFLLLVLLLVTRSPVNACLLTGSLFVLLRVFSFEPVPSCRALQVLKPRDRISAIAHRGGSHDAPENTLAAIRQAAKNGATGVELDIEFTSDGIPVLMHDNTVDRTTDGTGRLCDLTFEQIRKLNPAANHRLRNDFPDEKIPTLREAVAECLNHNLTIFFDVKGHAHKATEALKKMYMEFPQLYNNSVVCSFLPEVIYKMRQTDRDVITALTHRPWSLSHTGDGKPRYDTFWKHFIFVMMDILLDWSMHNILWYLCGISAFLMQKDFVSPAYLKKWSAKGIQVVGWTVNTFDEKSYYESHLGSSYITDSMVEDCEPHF

Assays:
Experiment in all cases: log2 fold change, soluble protein after heating vs DMSO (PISA); higher = thermal stabilisation; K562 lysate, 10 uM; active = over 0.2 and 3.5 SD of the protein, either way, in both replicates (recomputed)
[1] = compound: C1=CC=C(C=C1)[C@H](COC2=CC3=C(C=C2)NC(=O)N3)NC(=O)C4=CC=CN(C4=O)CC5=CC(=C(C=C5)F)F
Procedure, shortened: (§1)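 Soluble protein was defined as the supernatant remaining after 21,000xg for 90 min, following pooling of heated aliquots and adjustment to 0.5% NP-40 at 4°C. Before that, crude K562 extract at 1 mg/mL protein in PBS pH 7.4 with 1 mM MgCl2 was treated with 10 μM compound for 30 min and heated for 3 min across 48°C-58°C. Quantification used TMTpro 16plex LC-MS/MS with channel sums equalised, and values are log-two fold changes in thermal stability relative to solvent controls from duplicates.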

[2] = compound: CC1=C(SC2=C1C(=N[C@H](C3=NN=C(N32)C)CC(=O)N)C4=CC=C(C=C4)Cl)C
Procedure, shortened: as §1

[3] = compound: CC1=C2C(=CC=C1)N=C(N(C2=O)C3=CC=CC=C3C)CN4C=NC5=C(N=CN=C54)N
Procedure, shortened: as §1

[4] = compound: Cc1sc2c(c1C)C(c1ccc(Cl)cc1)=N[C@@H](CC(=O)OC(C)(C)C)c1nnc(C)n1-2
Procedure, shortened: as §1

[5] = compound: c1ccc([C@@H]2C[C@H]2NC2CCNCC2)cc1
Procedure, shortened: as §1

Measured: log2 fold change

GDI2 (UniProt Q5SX86)
inactive: [1] 0.117 | [2] -0.008 | [3] -0.199 | [4] -0.012 | [5] 0.254

GBA2 (UniProt Q9HCG7)
inactive: [1] 0.046 | [2] 0.062 | [4] -0.094 | [5] -0.057

FTO (UniProt Q9C0B1)
inactive: [1] 0 | [2] -0.005 | [3] 0.008 | [4] -0.037 | [5] -0.025

GAGE2A (UniProt Q6NT46)
inactive: [1] -0.03 | [2] 0.021 | [3] -0.093 | [4] 0.01 | [5] 0.038

GABARAPL1 isoform 2 (UniProt Q9H0R8)
inactive: [1] 0.045 | [2] 0.064 | [3] 0.005 | [4] -0.054 | [5] 0.031

FOXP4 (UniProt Q8IVH2)
inactive: [1] 0.092 | [2] 0.064 | [3] -0.171 | [4] 0.149 | [5] 0.009

GCDH (UniProt Q92947)
inactive: [1] 0.034 | [2] -0.032 | [3] -0.022 | [4] -0.008 | [5] -0.004

GALNT4 (UniProt Q8N4A0)
inactive: [1] 0.112 | [2] 0.02 | [3] 0.063 | [4] 0.046 | [5] 0.023

GCC2 (UniProt Q8IWJ2)
inactive: [1] 0.04 | [2] -0.032 | [3] 0 | [4] -0.023 | [5] -0.033

GALNS (UniProt P34059)
inactive: [1] 0.03 | [2] 0.018 | [3] -0.005 | [4] -0.008 | [5] -0.013

GAMT (UniProt Q14353)
inactive: [1] -0.025 | [2] -0.083 | [3] -0.002 | [4] 0.114 | [5] 0.005

GALK2 (UniProt Q01415)
inactive: [1] 0.012 | [2] -0.005 | [3] 0.026 | [4] 0.003 | [5] -0.046

GEMIN8 (UniProt Q9NWZ8)
inactive: [1] -0.023 | [2] 0.01 | [3] -0.113 | [5] 0.063

GAA (UniProt P10253)
inactive: [1] -0.001 | [2] -0.077 | [3] -0.157 | [5] -0.024

GATD1 (UniProt Q8NB37)
inactive: [1] -0.04 | [2] -0.008 | [3] 0.06 | [4] 0.032 | [5] -0.023

FXR2 (UniProt P51116)
inactive: [1] -0.021 | [2] -0.011 | [3] 0.032 | [4] -0.014 | [5] 0.054

GCFC2 (UniProt P16383)
inactive: [1] 0.065 | [2] 0.094 | [3] 0.014 | [4] -0.039 | [5] 0.086

GFER (UniProt P55789)
inactive: [1] 0.105 | [2] 0.087 | [3] 0.001 | [4] -0.008 | [5] 0.034

GAB2 (UniProt Q9UQC2)
inactive: [1] 0.034 | [2] -0.005 | [3] -0.063 | [4] 0.009 | [5] -0.021

2 entries picked at random from those above:
FOXP4 (UniProt Q8IVH2)
inactive: [1] 0.092 | [2] 0.064 | [3] -0.171 | [4] 0.149 | [5] 0.009

GABARAPL1 isoform 2 (UniProt Q9H0R8)
inactive: [1] 0.045 | [2] 0.064 | [3] 0.005 | [4] -0.054 | [5] 0.031

(further entries)

FPGT (UniProt O14772)
inactive: [1] 0.007 | [2] -0.003 | [3] 0.07 | [4] -0.006 | [5] 0.104

GFM1 (UniProt Q96RP9)
inactive: [1] -0.013 | [2] 0.004 | [3] 0.061 | [4] 0.032 | [5] 0.007

GALNT12 (UniProt Q8IXK2)
inactive: [1] 0.017 | [2] -0.021 | [3] 0.018 | [4] -0.025 | [5] 0.007

GABPB1 (UniProt Q06547)
inactive: [1] 0.044 | [2] -0.013 | [3] -0.04 | [4] -0.001 | [5] 0.132

GDPGP1 (UniProt Q6ZNW5)
inactive: [1] -0.013 | [2] -0.025 | [3] -0.059 | [4] 0.028 | [5] -0.012

FRMPD3 (UniProt Q5JV73)
inactive: [1] 0.004 | [2] 0.008 | [3] -0.029 | [5] -0.172

FRYL (UniProt O94915)
inactive: [1] -0.032 | [2] 0 | [3] 0.008 | [4] 0.013 | [5] 0.018

GALNT6 (UniProt Q8NCL4)
inactive: [1] 0.041 | [2] 0.001 | [3] -0.052 | [4] -0.128 | [5] -0.105

GABARAPL2 (UniProt P60520)
inactive: [1] -0.031 | [2] 0.028 | [3] 0.008 | [4] 0.017 | [5] 0.034

GDAP2 (UniProt Q9NXN4)
inactive: [1] -0.031 | [2] -0.021 | [3] 0.008 | [4] 0.084 | [5] 0.047

GGA1 isoform 6 (UniProt Q9UJY5)
inactive: [1] 0.006 | [2] 0.006 | [3] 0.016 | [4] -0.012 | [5] 0.026

GDAP1 (UniProt Q8TB36)
inactive: [1] -0.033 | [2] 0.032 | [3] 0.026 | [4] 0.047 | [5] 0.09

FOXL2 (UniProt P58012)
inactive: [1] 0.135 | [2] 0.129 | [4] 0.166

GARS1 (UniProt P41250)
inactive: [1] 0.01 | [2] 0.01 | [3] 0.002 | [4] -0.014 | [5] 0.002

GATAD2B (UniProt Q8WXI9)
inactive: [1] 0.01 | [2] 0.02 | [3] 0.019 | [4] 0.051 | [5] 0.056

GALT (UniProt P07902)
inactive: [1] 0.052 | [2] -0.104 | [3] 0.007 | [4] 0.039 | [5] -0.059

GCSH (UniProt P23434)
inactive: [1] -0.036 | [2] -0.064 | [3] -0.065 | [4] 0.018 | [5] 0.013

FUNDC2 (UniProt Q9BWH2)
inactive: [1] 0.01 | [2] 0.009 | [3] -0.003 | [4] -0.061 | [5] 0.025

GDE1 (UniProt Q9NZC3)
inactive: [1] -0.085 | [2] -0.076 | [4] -0.067 | [5] 0.394

GATAD2A isoform 3 (UniProt Q86YP4)
inactive: [1] -0.01 | [2] -0.006 | [3] 0.032 | [4] -0.015 | [5] 0.036

GALC (UniProt P54803)
inactive: [1] -0.009 | [2] -0.021 | [3] 0.018 | [4] -0.025 | [5] -0.05
